# Measured values published in the supplement of paper PMC6411743.
# Amino acid sequences for entries named in this document (tags omitted). A change or cut given only in a name is not applied to a line headed by its entry.
# UniProt Q9Y285: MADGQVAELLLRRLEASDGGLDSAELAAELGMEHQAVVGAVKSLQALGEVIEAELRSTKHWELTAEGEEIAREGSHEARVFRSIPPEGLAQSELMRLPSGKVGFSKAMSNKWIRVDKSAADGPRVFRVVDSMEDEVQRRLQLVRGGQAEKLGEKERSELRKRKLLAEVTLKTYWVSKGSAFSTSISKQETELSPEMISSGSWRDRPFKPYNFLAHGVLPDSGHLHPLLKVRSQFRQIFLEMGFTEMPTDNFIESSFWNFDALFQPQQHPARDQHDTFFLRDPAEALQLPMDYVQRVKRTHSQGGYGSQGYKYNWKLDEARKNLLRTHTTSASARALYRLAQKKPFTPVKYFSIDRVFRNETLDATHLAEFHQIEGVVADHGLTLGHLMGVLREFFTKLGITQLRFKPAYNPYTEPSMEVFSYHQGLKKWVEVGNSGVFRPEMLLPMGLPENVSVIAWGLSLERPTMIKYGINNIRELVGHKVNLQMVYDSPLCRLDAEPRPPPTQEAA
# UniProt Q9UJX3, whole entry: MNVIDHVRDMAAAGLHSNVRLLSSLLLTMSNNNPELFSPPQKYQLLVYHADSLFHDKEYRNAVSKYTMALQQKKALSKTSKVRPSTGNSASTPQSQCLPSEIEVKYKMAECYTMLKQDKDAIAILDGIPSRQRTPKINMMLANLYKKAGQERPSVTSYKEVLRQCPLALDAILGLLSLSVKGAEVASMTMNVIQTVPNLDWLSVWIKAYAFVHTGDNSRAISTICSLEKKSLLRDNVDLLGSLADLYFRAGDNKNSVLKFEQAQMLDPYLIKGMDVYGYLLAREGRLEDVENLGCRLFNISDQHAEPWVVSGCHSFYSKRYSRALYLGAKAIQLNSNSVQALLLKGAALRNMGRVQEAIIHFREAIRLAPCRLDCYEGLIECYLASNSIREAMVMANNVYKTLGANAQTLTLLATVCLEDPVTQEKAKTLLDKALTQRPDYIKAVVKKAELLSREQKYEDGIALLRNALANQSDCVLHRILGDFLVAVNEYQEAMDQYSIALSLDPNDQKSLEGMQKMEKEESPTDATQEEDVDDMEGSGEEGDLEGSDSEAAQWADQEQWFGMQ
# UniProt Q9UH03, whole entry: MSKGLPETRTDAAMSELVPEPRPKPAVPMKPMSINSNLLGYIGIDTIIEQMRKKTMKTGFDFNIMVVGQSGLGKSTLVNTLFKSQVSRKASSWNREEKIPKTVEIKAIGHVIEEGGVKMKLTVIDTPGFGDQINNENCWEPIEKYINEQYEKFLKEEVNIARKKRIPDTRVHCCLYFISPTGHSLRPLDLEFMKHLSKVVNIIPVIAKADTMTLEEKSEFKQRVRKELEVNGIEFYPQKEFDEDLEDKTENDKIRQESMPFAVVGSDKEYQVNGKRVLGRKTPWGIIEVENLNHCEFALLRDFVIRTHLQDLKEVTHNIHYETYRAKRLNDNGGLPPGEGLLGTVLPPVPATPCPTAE
# UniProt Q9UBU8, whole entry: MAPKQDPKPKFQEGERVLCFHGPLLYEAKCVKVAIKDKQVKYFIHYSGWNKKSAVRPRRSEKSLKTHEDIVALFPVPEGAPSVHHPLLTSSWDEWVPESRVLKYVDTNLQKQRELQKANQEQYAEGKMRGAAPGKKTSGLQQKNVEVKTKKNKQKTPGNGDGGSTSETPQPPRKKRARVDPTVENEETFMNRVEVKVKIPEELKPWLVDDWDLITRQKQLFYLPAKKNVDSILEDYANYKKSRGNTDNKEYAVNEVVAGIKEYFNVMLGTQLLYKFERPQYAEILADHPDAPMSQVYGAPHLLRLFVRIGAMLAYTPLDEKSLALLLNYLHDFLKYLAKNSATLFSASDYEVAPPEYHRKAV
# UniProt Q9UHP3: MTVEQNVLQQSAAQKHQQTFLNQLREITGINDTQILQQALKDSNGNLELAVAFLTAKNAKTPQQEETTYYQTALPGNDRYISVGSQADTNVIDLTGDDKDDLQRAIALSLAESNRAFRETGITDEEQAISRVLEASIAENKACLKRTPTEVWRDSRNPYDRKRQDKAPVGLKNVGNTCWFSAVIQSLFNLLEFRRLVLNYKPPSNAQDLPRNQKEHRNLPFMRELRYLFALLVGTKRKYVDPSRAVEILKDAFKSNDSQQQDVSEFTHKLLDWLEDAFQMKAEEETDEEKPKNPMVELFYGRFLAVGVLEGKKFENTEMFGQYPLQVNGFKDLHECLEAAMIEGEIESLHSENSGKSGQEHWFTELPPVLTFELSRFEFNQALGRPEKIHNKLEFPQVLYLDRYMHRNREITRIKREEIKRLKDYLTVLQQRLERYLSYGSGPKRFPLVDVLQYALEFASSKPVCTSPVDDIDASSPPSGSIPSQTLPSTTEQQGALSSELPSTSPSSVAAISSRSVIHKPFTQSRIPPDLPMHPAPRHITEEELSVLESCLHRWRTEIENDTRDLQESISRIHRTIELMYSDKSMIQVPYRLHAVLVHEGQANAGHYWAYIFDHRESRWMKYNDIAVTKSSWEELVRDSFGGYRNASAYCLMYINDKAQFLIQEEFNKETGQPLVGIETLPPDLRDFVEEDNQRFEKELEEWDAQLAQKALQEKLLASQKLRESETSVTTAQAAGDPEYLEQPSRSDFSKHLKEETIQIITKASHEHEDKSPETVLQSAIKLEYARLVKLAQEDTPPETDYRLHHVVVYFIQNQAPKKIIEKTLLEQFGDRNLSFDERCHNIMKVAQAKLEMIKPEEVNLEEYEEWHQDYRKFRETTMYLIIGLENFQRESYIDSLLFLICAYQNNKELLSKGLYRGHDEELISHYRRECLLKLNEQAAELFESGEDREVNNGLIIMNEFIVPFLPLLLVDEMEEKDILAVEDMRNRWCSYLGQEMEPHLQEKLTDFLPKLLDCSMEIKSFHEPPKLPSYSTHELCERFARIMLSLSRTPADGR
# UniProt Q9UER7, whole entry: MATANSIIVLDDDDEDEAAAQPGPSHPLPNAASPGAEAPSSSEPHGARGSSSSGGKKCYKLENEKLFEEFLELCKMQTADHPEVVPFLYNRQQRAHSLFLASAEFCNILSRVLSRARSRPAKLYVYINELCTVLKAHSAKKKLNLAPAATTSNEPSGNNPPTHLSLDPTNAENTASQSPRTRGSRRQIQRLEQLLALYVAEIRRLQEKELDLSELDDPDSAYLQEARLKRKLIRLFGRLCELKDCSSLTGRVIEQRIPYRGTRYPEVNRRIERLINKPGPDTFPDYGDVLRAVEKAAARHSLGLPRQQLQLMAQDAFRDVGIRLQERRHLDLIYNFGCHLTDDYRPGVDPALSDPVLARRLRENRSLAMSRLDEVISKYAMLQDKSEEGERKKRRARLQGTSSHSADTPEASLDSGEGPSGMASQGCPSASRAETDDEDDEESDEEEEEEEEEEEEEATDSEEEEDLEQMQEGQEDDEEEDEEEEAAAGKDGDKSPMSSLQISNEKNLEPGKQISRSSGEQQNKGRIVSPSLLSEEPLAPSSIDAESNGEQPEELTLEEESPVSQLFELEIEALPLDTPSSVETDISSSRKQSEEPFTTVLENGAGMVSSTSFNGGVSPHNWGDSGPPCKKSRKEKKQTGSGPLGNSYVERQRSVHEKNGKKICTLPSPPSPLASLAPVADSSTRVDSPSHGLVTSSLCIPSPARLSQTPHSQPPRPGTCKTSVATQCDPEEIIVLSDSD
# UniProt Q9UI09, whole entry: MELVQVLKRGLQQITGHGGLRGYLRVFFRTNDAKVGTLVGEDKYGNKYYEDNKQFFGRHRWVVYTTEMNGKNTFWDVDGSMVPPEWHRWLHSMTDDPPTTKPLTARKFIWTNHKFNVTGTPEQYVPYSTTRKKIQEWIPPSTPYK
# UniProt Q9UBW8: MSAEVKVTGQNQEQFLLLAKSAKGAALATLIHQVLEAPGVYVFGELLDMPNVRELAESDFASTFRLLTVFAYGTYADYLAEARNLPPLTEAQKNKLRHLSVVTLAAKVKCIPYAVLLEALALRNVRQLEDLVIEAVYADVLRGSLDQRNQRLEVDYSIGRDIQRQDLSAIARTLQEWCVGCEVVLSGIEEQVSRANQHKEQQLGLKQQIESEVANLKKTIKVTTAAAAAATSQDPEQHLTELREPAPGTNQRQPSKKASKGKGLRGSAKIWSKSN
# UniProt Q9UIJ7: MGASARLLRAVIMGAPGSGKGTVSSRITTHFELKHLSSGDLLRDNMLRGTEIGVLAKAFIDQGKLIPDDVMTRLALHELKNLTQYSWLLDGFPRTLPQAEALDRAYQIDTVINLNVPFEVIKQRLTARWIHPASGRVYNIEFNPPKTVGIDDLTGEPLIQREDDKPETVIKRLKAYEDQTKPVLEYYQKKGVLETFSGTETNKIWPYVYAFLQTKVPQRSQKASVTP
# UniProt Q9ULC4: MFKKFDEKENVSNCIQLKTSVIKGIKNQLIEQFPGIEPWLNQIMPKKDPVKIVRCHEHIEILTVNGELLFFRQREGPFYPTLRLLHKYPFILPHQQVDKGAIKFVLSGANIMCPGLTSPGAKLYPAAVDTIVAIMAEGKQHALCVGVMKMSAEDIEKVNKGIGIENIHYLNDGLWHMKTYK
# UniProt Q9Y248: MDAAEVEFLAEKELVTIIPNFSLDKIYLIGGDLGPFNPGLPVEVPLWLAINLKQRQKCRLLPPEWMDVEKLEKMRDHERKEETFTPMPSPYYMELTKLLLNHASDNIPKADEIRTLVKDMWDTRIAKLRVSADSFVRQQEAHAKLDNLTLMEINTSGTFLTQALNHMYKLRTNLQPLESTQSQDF
# UniProt Q9UNP9: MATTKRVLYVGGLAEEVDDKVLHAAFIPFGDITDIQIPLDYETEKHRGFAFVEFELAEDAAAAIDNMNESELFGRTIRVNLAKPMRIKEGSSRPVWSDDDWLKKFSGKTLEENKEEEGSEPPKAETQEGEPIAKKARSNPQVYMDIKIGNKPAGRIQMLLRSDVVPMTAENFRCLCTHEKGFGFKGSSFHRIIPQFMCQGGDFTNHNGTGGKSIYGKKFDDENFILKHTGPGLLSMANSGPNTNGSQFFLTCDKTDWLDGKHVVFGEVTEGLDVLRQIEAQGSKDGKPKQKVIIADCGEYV
# UniProt Q9Y281, whole entry: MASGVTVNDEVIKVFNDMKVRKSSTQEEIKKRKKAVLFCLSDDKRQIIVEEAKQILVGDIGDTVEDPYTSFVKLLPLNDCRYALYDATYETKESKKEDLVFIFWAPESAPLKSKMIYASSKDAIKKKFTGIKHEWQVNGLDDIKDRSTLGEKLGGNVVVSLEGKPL
# UniProt Q9UJY4: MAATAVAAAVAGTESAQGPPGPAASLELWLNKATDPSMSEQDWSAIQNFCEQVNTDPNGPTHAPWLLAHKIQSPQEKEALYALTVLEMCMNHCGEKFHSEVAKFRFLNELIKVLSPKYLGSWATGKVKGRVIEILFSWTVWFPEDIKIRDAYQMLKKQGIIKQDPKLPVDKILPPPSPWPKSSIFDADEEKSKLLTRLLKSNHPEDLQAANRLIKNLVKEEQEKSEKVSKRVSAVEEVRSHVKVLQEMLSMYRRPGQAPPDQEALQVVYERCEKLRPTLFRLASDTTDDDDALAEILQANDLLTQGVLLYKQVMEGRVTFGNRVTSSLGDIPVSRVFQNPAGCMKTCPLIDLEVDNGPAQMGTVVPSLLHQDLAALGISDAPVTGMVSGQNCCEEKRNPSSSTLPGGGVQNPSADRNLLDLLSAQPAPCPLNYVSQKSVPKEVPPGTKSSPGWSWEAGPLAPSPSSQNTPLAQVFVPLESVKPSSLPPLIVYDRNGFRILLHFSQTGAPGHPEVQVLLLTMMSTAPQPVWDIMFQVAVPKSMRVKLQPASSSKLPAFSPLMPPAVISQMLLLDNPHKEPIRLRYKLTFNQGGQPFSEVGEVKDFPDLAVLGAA
# UniProt Q9UBK7: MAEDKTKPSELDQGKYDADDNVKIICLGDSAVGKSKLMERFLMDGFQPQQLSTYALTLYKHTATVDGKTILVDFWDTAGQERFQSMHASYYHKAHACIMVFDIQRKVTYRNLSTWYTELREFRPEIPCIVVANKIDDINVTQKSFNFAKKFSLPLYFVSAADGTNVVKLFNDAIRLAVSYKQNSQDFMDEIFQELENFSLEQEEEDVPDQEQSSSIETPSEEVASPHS
# UniProt Q9UNT1: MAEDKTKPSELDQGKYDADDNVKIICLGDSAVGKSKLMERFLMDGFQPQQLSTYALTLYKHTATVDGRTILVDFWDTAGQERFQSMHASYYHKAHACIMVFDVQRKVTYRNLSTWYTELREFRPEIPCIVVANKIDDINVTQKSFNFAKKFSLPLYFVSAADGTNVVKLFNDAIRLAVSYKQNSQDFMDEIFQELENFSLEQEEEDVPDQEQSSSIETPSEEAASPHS
# UniProt Q9Y266: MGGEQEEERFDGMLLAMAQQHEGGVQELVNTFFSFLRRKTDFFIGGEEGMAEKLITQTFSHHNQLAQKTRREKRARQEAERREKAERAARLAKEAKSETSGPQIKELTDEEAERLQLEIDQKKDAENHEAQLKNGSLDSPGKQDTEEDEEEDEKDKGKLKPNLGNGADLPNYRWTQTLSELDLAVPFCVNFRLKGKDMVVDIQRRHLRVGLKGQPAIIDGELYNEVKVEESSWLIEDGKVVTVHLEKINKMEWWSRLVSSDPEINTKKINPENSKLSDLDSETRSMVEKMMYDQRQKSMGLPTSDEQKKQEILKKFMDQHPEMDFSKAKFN
# ± gives the standard deviation of the averaged measurements. The list shows a part of the results, in another mix than the full data. Most entries show no effect beyond the scatter of the controls.
# Compound: Nc1ncnc2c1ncn2[C@@H]1O[C@H](COP(=O)(O)OP(=O)(O)OP(=O)(O)O)[C@@H](O)[C@H]1O [adenosine triphosphate]
# Assay: NP40-soluble protein abundance relative to vehicle (solubility fold change) (ratio); higher = more soluble protein in presence of ATP
# Conditions: concentration: 0.5mM
# How it was run: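 Values are fold changes against the detergent-processed vehicle, based on vsn-normalised intensities. Jurkat crude lysate was treated at eight concentrations from 0.1 to 10 mM (10 min at room temperature, then 3 min at 37 °C), solubilised with 0.8% NP40 and benzonase, ultracentrifuged and analysed by TMT-labelled LC-MS/MS over three independent experiments.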
row,Target,NP40-soluble protein abundance
1,FARSA (UniProt Q9Y285),0.987 ± 0.023
2,ANAPC7 (UniProt Q9UJX3),1.02 ± 0.021
3,UniProt Q9UH03 and related entries,1.07 ± 0.028
4,UniProt Q9UBU8-2,1.01 ± 0.022
5,UniProt Q9UHP3 and related entries,0.913 ± 0.089
6,UniProt Q9UH99,1.18 ± 0.066
7,UniProt Q9UER7 and related entries,0.939 ± 0.062
8,NDUFA12 (UniProt Q9UI09),0.994 ± 0.081
9,UniProt Q9UBH6 and related entries,1.06 ± 0.081
10,COPS7A (UniProt Q9UBW8),0.9963 ± 0.005
11,UniProt Q9P260 and related entries,1.02 ± 0.041
12,AK3 (UniProt Q9UIJ7),0.933 ± 0.048
13,UniProt Q9ULC4 and related entries,1.04 ± 0.043
14,GINS2 (UniProt Q9Y248),0.941 ± 0.054
15,PPIE (UniProt Q9UNP9),1.04 ± 0.023
16,CFL2 (UniProt Q9Y281),0.906 ± 0.072
17,GGA2 (UniProt Q9UJY4),0.96 ± 0.032
18,Q9UBK7-2|Q9UNT1-2 (UniProt Q9UNT1+Q9UBK7),0.984 ± 0.043
19,UniProt Q9P287 and related entries,1.01 ± 0.016
20,UniProt Q9UGN5-2,1.03 ± 0.038
21,GPATCH8 (UniProt Q9UKJ3),1.35 ± 0.15
22,UniProt Q9UKZ1,1.05 ± 0.024
23,UniProt Q9UBS8 and related entries,0.994 ± 0.057
24,UniProt Q9UJX6 and related entries,1.033 ± 0.0063
25,CPSF2 (UniProt Q9P2I0),1.08 ± 0.04
26,NUDC (UniProt Q9Y266),0.983 ± 0.03
27,UniProt Q9ULK4 and related entries,1 ± 0.091

# Two records drawn at random from those above:
row,Target,NP40-soluble protein abundance
18,Q9UBK7-2|Q9UNT1-2 (UniProt Q9UNT1+Q9UBK7),0.984 ± 0.043
5,UniProt Q9UHP3 and related entries,0.913 ± 0.089
